Here are results for 1 substance from PMC3470570.

By UniProt entry, the sequences of proteins in these tests, tags left out.
UniProt Q13309: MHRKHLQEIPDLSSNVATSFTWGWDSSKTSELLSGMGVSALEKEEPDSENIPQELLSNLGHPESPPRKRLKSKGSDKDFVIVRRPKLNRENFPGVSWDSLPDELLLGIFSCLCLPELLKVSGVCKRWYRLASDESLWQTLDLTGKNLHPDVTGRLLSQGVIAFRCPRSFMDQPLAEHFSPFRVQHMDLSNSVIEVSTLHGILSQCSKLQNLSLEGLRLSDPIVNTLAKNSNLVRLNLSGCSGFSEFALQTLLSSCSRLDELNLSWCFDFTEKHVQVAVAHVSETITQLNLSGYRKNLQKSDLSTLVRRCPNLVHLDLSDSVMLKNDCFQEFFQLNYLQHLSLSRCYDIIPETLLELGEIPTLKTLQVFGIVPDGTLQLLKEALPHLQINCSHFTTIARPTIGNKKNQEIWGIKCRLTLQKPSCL
UniProt Q969H0: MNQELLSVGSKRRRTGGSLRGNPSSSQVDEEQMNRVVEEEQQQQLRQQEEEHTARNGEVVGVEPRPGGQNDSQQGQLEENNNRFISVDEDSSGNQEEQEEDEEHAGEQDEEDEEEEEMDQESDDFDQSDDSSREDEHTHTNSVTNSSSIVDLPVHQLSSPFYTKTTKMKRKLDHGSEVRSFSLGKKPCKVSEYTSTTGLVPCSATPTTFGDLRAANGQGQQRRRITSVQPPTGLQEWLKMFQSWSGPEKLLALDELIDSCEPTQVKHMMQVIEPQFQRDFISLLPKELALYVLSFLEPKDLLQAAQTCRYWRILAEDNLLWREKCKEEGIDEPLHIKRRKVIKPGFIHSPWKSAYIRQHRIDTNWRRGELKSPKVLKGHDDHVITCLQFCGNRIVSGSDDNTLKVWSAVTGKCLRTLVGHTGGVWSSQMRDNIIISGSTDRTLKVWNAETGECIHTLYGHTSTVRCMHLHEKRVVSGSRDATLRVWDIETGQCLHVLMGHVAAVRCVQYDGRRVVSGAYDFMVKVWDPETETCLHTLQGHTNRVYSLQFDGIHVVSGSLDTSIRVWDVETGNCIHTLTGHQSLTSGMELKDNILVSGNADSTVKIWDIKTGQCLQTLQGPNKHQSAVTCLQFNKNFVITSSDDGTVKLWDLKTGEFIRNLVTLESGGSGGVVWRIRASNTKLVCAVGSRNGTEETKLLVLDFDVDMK

These are yes or no findings as the source states them, for the method shown. In cells and extracts the contact can be indirect.

This assay has as its target bacterially expressed GST-Skp2 (UniProt Q13309). Briefly: pull-down; bacterially expressed GST-Skp2 (or GST) immobilized onto glutathione beads, incubated with lysates of LNCaP cells transfected with β-TrCP-Myc or Fbw7-Myc; blot with anti-Myc; Fig. 5D; only the target purified.

Regarding “Myc-tagged Fbw7 (from UniProt Q969H0 1-707)”, the binding result is on record as “no binding”.
